# Measurements as given in PMC8410870.
# By UniProt entry, the sequences of proteins in these tests, tags left out.
# UniProt Q86VP1: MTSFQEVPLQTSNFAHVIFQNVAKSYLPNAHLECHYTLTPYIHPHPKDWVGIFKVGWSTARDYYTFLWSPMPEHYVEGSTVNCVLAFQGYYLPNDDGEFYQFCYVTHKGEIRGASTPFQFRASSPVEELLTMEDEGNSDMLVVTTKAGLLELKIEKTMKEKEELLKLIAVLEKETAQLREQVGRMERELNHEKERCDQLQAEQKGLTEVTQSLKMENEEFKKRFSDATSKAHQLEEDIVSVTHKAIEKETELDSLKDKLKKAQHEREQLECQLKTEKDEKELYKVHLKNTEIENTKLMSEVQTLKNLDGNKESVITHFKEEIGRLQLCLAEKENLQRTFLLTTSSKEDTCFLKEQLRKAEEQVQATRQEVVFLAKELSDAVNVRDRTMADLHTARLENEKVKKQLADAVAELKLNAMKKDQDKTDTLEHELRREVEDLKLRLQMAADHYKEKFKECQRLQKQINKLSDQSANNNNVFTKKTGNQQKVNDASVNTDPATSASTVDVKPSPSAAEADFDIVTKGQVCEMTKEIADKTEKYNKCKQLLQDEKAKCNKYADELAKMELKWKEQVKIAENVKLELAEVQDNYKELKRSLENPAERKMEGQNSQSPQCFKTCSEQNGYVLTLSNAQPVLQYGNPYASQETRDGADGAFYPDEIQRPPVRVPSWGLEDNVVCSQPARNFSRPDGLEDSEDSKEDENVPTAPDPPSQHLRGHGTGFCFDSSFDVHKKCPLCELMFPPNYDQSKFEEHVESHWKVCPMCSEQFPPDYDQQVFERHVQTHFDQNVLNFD
# Results are given in words; binding and its absence hold for the method and conditions named. Some entries that bind do so weakly or less than the wild type. Tags and fused reporters may be left off the sequences shown.
# Target: GST-TAX1BP1 (human) (UniProt Q86VP1)
# Experiment: pull-down; microscopy-based protein-protein interaction assay: GST-tagged bait saturated on Glutathione Sepharose 4B beads, fluorescent prey at 2 µM, 25 mM HEPES pH 7.5, 150 mM NaCl, 1 mM DTT, 30 min-1 h at room temperature, beads imaged at the equilibrium by confocal microscopy; both purified
binder,measurement,value
"GFP-NBR1 fragment spanning the CC1 and FW domains (aa 257-498) (domain or fragment, UniProt Q14596 257-498) LKLRRPVVGSSEPFCHSKYSTPRLPAALEQVRLQKQVDKNFLKAEKQRLRAEKKQRKAEVKELKKQLKLHRKIHLWNSIHGLQSPKSPLGRPESLLQSNTLMLPLQPCTSVMPMLSAAFVDENLPDGTHLQPGTKFIKHWRMKNTGNVKWSADTKLKFMWGNLTLASTEKKDVLVPCLKAGHVGVVSVEFIAPALEGTYTSHWRLSHKGQQFGPRVWCSIIVDPFPSEESPDNIEKGMISSS",binding,binds
